# In PMC8602323:
# By UniProt entry, the sequences of proteins in these tests, tags left out.
# UniProt Q14289: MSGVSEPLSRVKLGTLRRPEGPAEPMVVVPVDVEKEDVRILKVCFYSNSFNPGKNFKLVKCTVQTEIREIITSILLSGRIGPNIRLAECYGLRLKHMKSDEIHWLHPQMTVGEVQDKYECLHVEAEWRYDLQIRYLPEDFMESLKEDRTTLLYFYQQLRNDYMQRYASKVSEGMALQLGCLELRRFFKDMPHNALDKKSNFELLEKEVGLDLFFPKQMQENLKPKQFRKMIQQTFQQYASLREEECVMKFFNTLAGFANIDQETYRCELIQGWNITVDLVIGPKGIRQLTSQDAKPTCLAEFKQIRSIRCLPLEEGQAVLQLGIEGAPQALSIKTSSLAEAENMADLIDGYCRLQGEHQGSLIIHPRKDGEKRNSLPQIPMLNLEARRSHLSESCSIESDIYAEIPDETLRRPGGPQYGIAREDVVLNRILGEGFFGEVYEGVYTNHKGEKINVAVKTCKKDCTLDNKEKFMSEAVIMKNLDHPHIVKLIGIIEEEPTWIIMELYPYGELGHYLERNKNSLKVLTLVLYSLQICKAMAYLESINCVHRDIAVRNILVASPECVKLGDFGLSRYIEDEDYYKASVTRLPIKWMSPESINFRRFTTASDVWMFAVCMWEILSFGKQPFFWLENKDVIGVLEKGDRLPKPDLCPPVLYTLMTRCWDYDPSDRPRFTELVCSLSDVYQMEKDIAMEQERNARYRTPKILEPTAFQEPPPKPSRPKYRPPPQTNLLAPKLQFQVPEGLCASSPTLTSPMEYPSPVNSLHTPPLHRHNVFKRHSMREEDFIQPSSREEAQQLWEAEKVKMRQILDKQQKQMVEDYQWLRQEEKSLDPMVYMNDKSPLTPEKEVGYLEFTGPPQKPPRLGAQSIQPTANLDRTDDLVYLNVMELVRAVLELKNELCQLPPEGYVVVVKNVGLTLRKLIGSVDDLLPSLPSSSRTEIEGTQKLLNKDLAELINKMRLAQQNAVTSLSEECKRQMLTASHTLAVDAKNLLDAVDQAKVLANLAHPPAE
# Tests used:
# Test in all cases: co-IP; Myc-tagged kinases and HA-tagged IRF5 co-expressed in 293 ET cells; lysates immunoprecipitated with anti-myc antibody; western blot
# Myc-tagged ARK5 = target: T1, Myc-tagged ARK5 (UniProt O60285)
# T1 sequence: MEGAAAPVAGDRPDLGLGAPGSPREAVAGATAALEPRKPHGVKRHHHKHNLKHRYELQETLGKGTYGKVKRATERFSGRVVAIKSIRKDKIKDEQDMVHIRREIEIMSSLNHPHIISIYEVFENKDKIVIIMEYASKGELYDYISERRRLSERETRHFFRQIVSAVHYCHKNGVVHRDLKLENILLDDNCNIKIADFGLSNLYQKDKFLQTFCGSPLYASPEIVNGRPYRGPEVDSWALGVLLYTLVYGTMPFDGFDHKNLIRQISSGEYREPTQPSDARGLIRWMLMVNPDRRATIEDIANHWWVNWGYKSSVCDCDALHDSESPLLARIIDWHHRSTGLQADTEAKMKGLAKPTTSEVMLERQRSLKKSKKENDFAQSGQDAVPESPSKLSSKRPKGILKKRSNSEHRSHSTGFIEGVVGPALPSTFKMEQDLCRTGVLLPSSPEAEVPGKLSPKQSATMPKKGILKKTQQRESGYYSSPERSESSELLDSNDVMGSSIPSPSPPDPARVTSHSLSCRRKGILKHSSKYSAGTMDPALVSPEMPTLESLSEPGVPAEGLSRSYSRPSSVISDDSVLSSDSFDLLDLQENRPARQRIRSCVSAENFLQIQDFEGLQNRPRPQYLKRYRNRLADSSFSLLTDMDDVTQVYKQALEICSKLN
# Myc-tagged HIPK4 = target: T2, Myc-tagged HIPK4 (UniProt Q8NE63)
# T2 sequence: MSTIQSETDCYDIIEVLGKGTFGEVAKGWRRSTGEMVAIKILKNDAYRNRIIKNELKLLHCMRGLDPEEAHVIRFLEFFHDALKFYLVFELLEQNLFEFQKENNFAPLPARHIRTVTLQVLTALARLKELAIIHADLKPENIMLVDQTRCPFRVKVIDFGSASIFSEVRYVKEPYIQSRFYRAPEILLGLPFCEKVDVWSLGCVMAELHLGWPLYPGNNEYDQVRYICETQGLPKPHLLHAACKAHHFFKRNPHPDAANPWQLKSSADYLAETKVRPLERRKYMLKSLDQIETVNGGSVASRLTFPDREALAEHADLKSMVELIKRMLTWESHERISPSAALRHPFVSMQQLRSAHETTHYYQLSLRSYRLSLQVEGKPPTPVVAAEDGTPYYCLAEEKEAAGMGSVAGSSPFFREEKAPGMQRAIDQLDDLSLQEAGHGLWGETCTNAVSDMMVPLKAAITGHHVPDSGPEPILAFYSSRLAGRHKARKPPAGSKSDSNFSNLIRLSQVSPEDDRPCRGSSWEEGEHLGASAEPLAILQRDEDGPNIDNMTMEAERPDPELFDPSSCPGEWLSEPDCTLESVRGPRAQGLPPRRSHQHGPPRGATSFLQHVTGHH
# Myc-tagged JNK2 = Myc-tagged JNK2 (UniProt P45984)
# [1] = target: Myc-tagged PYK2 (pEAK8-myc) (UniProt Q14289)
substance,measurement,setting,value
HA-tagged IRF5 (from UniProt Q13568-3),binding,Myc-tagged ARK5,binds weakly
same,binding,Myc-tagged HIPK4,binds weakly
same,binding,Myc-tagged JNK2,binds weakly
same,binding,[1],binds

# Results are given in words; binding and its absence hold for the method and conditions named. In cells and extracts the contact can be indirect. Binding calls can cover weak binding; strength is not graded here. For some of these results: Tags and fused reporters may be left off the sequences shown.
